The supplement of paper PMC9015667
Where a name gives a salt, the structure may show the parent alone. Some of the results follow. Single values are uncertain, as repeats are few or missing.

Key:
Test in all cases: reduction in cell viability relative to untreated/vehicle; higher = more growth inhibition
Conditions in all cases: 200 nM; 72 h
[1] = tested on: M229P (parental melanoma line)
[2] = tested on: M229R (matched melanoma line resistant to BRAF inhibitors)
[3] = tested on: M238P (parental melanoma line)
[4] = tested on: M238R (matched melanoma line resistant to BRAF inhibitors)
[5] = tested on: M249P (parental melanoma line)
[6] = tested on: M249R (matched melanoma line resistant to BRAF inhibitors)
[7] = tested on: UACC62P (parental melanoma line)
[8] = tested on: UACC62R (matched melanoma line resistant to BRAF inhibitors)

Row | SMILES | reduction in cell viability [1] | reduction in cell viability [2] | reduction in cell viability [3] | reduction in cell viability [4] | reduction in cell viability [5] | reduction in cell viability [6] | reduction in cell viability [7] | reduction in cell viability [8]
1 | COc1cc2/c(=N/c3ccc(Br)cc3F)nc[nH]c2cc1OCC1CCN(C)CC1 [Vandetanib] | < 0% | < 0% | < 0% | < 0% | < 0% | < 0% | < 0% | < 0%
2 | CCCCc1nc2cc(/C=C/C(=O)NO)ccc2n1CCN(CC)CC [Pracinostat] | < 0% | 6.79% | 3.65% | < 0% | < 0% | 1.2% | < 0% | 14.5%
3 | Nc1ncnc2c1ncn2[C@@H]1O[C@H](CO)[C@@H](O)[C@@H]1O [Vidarabine] | < 0% | < 0% | < 0% | < 0% | < 0% | < 0% | < 0% | < 0%
4 | O=C(Nc1cc(Cl)cc2c1[nH]c1cnccc12)c1cccnc1 | < 0% | < 0% | < 0% | < 0% | < 0% | 0.81% | < 0% | < 0%
5 | COc1ccc(CCC(=O)Nc2nc3ccc(Cl)cc3s2)cc1OC | < 0% | < 0% | < 0% | < 0% | < 0% | 0.29% | < 0% | < 0%
6 | C[C@H]1C[C@H]2[C@@H]3CCC4=CC(=O)C=C[C@]4(C)[C@H]3C(=O)C[C@]2(C)[C@@]1(O)C(=O)CO [Meprednisone] | < 0% | < 0% | < 0% | < 0% | < 0% | < 0% | < 0% | < 0%
7 | CCCCCCCCc1ccc(CCC(N)(CO)CO)cc1 [Fingolimod hydrochloride] | < 0% | < 0% | < 0% | < 0% | < 0% | < 0% | < 0% | < 0%
8 | N#CC1(c2ccc(NC(=O)c3cccnc3NCc3ccncc3)cc2)CCCC1 [Apatinib] | < 0% | < 0% | < 0% | < 0% | < 0% | < 0% | < 0% | < 0%
9 | CCN(CCO)CCCC(C)Nc1ccnc2cc(Cl)ccc12 (stereo not drawn) [Hydroxychloroquine sulfate] | < 0% | < 0% | < 0% | < 0% | < 0% | < 0% | < 0% | < 0%
10 | Cc1cccc(-c2nn3c(c2-c2ccnc4ccc(C(N)=O)cc24)CCC3)n1 | < 0% | < 0% | < 0% | < 0% | < 0% | < 0% | < 0% | < 0%
11 | CC(C)NCC(O)COc1ccc(COCCOC(C)C)cc1 (stereo not drawn) [Bisoprolol] | < 0% | 2.92% | < 0% | < 0% | < 0% | < 0% | < 0% | < 0%
12 | O=S(=O)(O)c1ccc2cc(N=Nc3cc(S(=O)(=O)O)c4cccnc4c3O)ccc2c1 | < 0% | < 0% | < 0% | < 0% | < 0% | < 0% | < 0% | < 0%
13 | CCn1nnc2c(N3CCOCC3)nc(-c3ccc(NC(=O)Nc4ccc(C(=O)N5CCN(C)CC5)cc4)cc3)nc21 | 62.8% | 53% | 59.1% | 62.7% | 69.3% | 61.9% | 64.4% | 62.4%
14 | O=C1CCC[C@@H]2[C@H]3CCC[N+]4([O-])CCC[C@@H](CN12)[C@@H]34 (stereo partly drawn) [Oxymatrine] | < 0% | < 0% | < 0% | < 0% | < 0% | < 0% | < 0% | < 0%
15 | CCCCC[C@H](O)/C=C/[C@H]1[C@H](O)CC(=O)[C@@H]1C/C=C\CCCC(=O)O [Dinoprostone] | < 0% | < 0% | < 0% | < 0% | < 0% | < 0% | < 0% | < 0%
16 | Nc1nc(N)nc(-c2cc(Cl)ccc2Cl)n1 [Irsogladine maleate] | < 0% | < 0% | < 0% | < 0% | < 0% | < 0% | 0.1% | < 0%
17 | Cc1cc(-c2nnc3n2CCCCC3)c(C)n1-c1ccccc1 | < 0% | < 0% | < 0% | < 0% | < 0% | < 0% | < 0% | < 0%
18 | COc1cc2c(NC3CCN(C(C)C)CC3)nc(C3CCCCC3)nc2cc1OCCCN1CCCC1 | 0.27% | 4.99% | < 0% | < 0% | < 0% | 15.5% | 14.1% | < 0%
19 | OCCN(CCO)c1nc(N2CCCCC2)c2nc(N(CCO)CCO)nc(N3CCCCC3)c2n1 [Dipyridamole] | < 0% | < 0% | < 0% | < 0% | < 0% | < 0% | < 0% | < 0%
20 | CN(C)CC(C)(C)CNc1nn2c(-c3ccccc3)nnc2cc1C1CCC1 | < 0% | < 0% | < 0% | < 0% | < 0% | 4.53% | < 0% | < 0%
21 | CNS(=O)(=O)CCc1ccc2[nH]cc(C3CCN(C)CC3)c2c1 [Naratriptan hydrochloride] | < 0% | < 0% | < 0% | < 0% | < 0% | < 0% | < 0% | < 0%

A second format for part of the listing above:
Row,SMILES,reduction in cell viability [1],reduction in cell viability [2],reduction in cell viability [3],reduction in cell viability [4],reduction in cell viability [5],reduction in cell viability [6],reduction in cell viability [7],reduction in cell viability [8]
10,Cc1cccc(-c2nn3c(c2-c2ccnc4ccc(C(N)=O)cc24)CCC3)n1,< 0%,< 0%,< 0%,< 0%,< 0%,< 0%,< 0%,< 0%
15,CCCCC[C@H](O)/C=C/[C@H]1[C@H](O)CC(=O)[C@@H]1C/C=C\CCCC(=O)O [Dinoprostone],< 0%,< 0%,< 0%,< 0%,< 0%,< 0%,< 0%,< 0%

Later entries:

Row | SMILES | reduction in cell viability [1] | reduction in cell viability [2] | reduction in cell viability [3] | reduction in cell viability [4] | reduction in cell viability [5] | reduction in cell viability [6] | reduction in cell viability [7] | reduction in cell viability [8]
22 | Cc1noc(NS(=O)(=O)c2ccc(N)cc2)c1C [Sulfafurazole] | < 0% | < 0% | < 0% | < 0% | < 0% | 13.9% | 0.27% | < 0%
23 | CS(=O)(=O)N1CCN(Cc2cc3nc(-c4cccc5[nH]ncc45)nc(N4CCOCC4)c3s2)CC1 | 5.53% | 16.3% | 35.7% | 36.9% | 18% | 4.87% | 26.6% | 9.13%
24 | CCS(=O)(=O)c1cccc(-c2cc(C(=O)NC3CCN(C)CC3)c(C)c3[nH]c4ncc(C)cc4c23)c1 | 5.16% | 27.9% | 51% | 79.2% | 12.8% | 13.4% | 33.7% | 62.6%
25 | Cc1coc2c1C(=O)C(=O)c1c-2ccc2c(C)cccc12 [Tanshinone I] | < 0% | < 0% | < 0% | < 0% | < 0% | 5.26% | < 0% | < 0%
26 | C[C@]1(c2nc3c(C(N)=O)cccc3[nH]2)CCCN1 [Veliparib] | < 0% | < 0% | < 0% | < 0% | < 0% | < 0% | < 0% | < 0%
27 | Nc1ccn(C[C@@H](CO)OCP(=O)(O)O)c(=O)n1 [Cidofovir] | < 0% | < 0% | < 0% | < 0% | < 0% | < 0% | < 0% | < 0%
28 | O=C(CN1C(=O)C2(CCCC2)NC[C@H]1c1cc(F)cc(F)c1)Nc1ccc2c(c1)C[C@@]1(C2)C(=O)Nc2ncccc21 | < 0% | < 0% | < 0% | < 0% | < 0% | < 0% | < 0% | < 0%
29 | CCCCCCCc1ccc(CCc2cccc(O)c2C(=O)O)cc1 | < 0% | < 0% | < 0% | < 0% | < 0% | < 0% | < 0% | < 0%
30 | COc1cc2ncn(-c3cc(OCc4ccccc4S(C)(=O)=O)c(C#N)s3)c2cc1OC [IKK-3 Inhibitor IX] | < 0% | 0.52% | < 0% | < 0% | 3.63% | 1.66% | < 0% | < 0%
31 | Cc1cc(OCCCS(C)(=O)=O)cc(C)c1-c1cccc(COc2ccc3c(c2)OC[C@H]3CC(=O)O)c1 | < 0% | < 0% | < 0% | < 0% | < 0% | < 0% | < 0% | < 0%
32 | COc1cccc([C@@H](C)NCCCc2ccccc2Cl)c1 | < 0% | < 0% | < 0% | < 0% | < 0% | < 0% | < 0% | 5.51%
33 | OC[C@H]1O[C@@H](Oc2cc(O)cc(/C=C/c3ccc(O)cc3)c2)[C@H](O)[C@@H](O)[C@@H]1O [Polydatin] | 3.35% | < 0% | < 0% | < 0% | < 0% | < 0% | < 0% | < 0%
34 | CCCCc1ccc2[nH]c(NC(=O)OC)nc2c1 [Parbendazole] | 33.6% | 34.2% | 53.4% | 59.1% | 62.3% | 57.1% | 57.4% | 93.2%
35 | CO/N=C(\C(=O)N[C@@H]1C(=O)N2C(C(=O)O)=C(Cn3ccc(=N)n3CCO)CS[C@H]12)c1csc(N)n1 [Cefoselis sulfate] | < 0% | < 0% | < 0% | < 0% | < 0% | < 0% | 12.3% | < 0%
36 | Clc1cccc(-c2nnnn2Cc2cccnc2)c1Cl | < 0% | < 0% | < 0% | < 0% | < 0% | 6.84% | 0.98% | < 0%
37 | CNC(=O)[C@H](Cc1c[nH]c2ccccc12)NC(=O)[C@@H](CC(=O)NO)CC(C)C | < 0% | < 0% | < 0% | < 0% | < 0% | < 0% | 1.84% | < 0%
38 | CC/C(=C(\c1ccccc1)c1ccc(OCCN(C)C)cc1)c1ccccc1 [Tamoxifen] | < 0% | < 0% | < 0% | < 0% | < 0% | < 0% | 5.91% | < 0%
39 | CC[C@H](C)n1cc(C)c2c(C(=O)NCc3c(C)cc(C)[nH]c3=O)cc(-c3ccc(N4CCNCC4)nc3)cc21 | 6.78% | < 0% | < 0% | < 0% | < 0% | < 0% | < 0% | < 0%
40 | COC(=O)[C@H]1[C@H]2C[C@@H]3c4[nH]c5cc(OC)ccc5c4CCN3C[C@H]2C[C@@H](OC(=O)c2cc(OC)c(OC)c(OC)c2)[C@@H]1OC [Reserpine] | < 0% | < 0% | < 0% | < 0% | < 0% | < 0% | 2.98% | < 0%
41 | NC(=O)N/N=C/c1ccc([N+](=O)[O-])o1 [Nitrofurazone] | < 0% | < 0% | < 0% | < 0% | < 0% | < 0% | 4.11% | < 0%
